From publication PMC7116222
These are yes or no findings as the source states them, for the method shown. Binding seen in cells or lysates may run through a third protein. Some entries that bind do so weakly or less than the wild type.

Target: T1, SLUG (human (endogenous in MCF7)) (UniProt O43623)
T1 sequence: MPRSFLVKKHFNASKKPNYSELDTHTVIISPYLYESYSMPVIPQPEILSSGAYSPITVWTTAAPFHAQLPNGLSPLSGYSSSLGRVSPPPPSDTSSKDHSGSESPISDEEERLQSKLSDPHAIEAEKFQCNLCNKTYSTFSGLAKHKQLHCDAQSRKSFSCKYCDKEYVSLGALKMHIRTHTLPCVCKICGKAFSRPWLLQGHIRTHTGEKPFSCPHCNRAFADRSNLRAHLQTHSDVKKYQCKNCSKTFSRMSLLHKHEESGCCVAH
Assay: co-IP; endogenous proteins in lysate of hypoxia-treated MCF7 cells; IP with anti-SLUG or anti-RBFOX2 antibody, normal rabbit or mouse IgG as control, Protein-G Dynabeads, 4°C; lysis and wash buffer 10 mM Tris pH 7.5, 150 mM NaCl, 0.5 mM EDTA, 0.5% NP-40; immunoblot with anti-SLUG and anti-RBFOX2

B1: RBFOX2 (protein, UniProt O43251 1-390)
chain: MQNEPLTPGYHGFPARDSQGNQEPTTTPDAMVQPFTTIPFPPPPQNGIPTEYGVPHTQDYAGQTGEHNLTLYGSTQAHGEQSSNSPSTQNGSLTTEGGAQTDGQQSQTQSSENSESKSTPKRLHVSNIPFRFRDPDLRQMFGQFGKILDVEIIFNERGSKGFGFVTFENSADADRAREKLHGTVVEGRKIEVNNATARVMTNKKMVTPYANGWKLSPVVGAVYGPELYAASSFQADVSLGNDAAVPLSGRGGINTYIPLISLPLVPGFPYPTAATTAAAFRGAHLRGRGRTVYGAVRAVPPTAIPAYPGVVYQDGFYGADLYGGYAAYRYAQPATATAATAAAAAAAAYSDGYGRVYTADPYHALAPAASYGVGAVASLYRGGYSRFAPY
binding: binds
